Data reported in PubChem BioAssay AID1990 (Broad Institute, 2009).
The median lay at about -60%. The list shows a part of the results. Potency and affinity values are given separately. The source made no clear call on entries shown without one.

The chains behind the UniProt entries cited, without tags or fusion partners.
UniProt P08659, whole entry, looked up: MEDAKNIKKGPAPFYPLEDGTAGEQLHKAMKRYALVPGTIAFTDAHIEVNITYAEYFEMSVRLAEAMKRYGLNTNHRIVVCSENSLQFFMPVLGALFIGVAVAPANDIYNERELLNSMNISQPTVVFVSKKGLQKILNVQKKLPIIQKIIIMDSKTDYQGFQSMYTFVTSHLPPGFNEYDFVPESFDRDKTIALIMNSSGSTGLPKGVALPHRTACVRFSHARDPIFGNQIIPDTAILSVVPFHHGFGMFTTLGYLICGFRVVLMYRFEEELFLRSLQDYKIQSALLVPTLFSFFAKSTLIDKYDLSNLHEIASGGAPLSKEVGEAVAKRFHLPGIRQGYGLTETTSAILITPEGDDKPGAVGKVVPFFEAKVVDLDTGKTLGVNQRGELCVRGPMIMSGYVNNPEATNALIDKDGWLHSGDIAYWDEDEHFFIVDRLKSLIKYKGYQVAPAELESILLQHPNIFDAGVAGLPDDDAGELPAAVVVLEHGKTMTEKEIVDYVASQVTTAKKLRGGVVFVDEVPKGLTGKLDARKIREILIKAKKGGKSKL

target: Luciferin 4-monooxygenase (Photinus pyralis) (UniProt P08659); assay: Luciferase translation or activity inhibitors, H4 neuroglioblastoma cells, luminescence dose response (AID 1990); conditions: H4 neuroglioma cells; at 12 µM (top of the series) unless noted

| Structure (SMILES) | activity change, negative = inhibition |
| --- | --- |
| CN(C)c1ccc(-c2noc(-c3ccccc3O)n2)cc1 | -32.7% |
| Cc1csc(NC(=O)C2COc3ccccc3O2)n1 (centres undefined) | -9.8% |
| CCCC1=Nc2cc(C(=O)NCCCOCC)ccc2Sc2ccccc21 | -46.9% |
| COc1cc(NC(=O)c2cc3ccccc3o2)c(OC)cc1Br | 36.6% |
| O=C(N/N=C/c1cccs1)c1n[nH]c2c1CCC2 | -24.5% |
| Cc1ccc(Nc2nc(N)c3ccccc3n2)cc1C | -56% |
| CC1CCN(Cc2c(C(=O)N/N=C/c3cc(Br)ccc3O)nnn2-c2nonc2N)CC1 | -82.9% |
| COc1ccc(C(=O)NCCC2=CCCCC2)cc1 | -54.2% |
| O=C(COc1ccc(CO)cc1Cl)Nc1ccc(F)cc1 | -20.3% |
| Cc1ccc2nc(SCC3CCCCO3)[nH]c2c1 (centres undefined) | -42.6% |
| O=c1[nH]c(/C=C/c2ccccc2F)nc2ccccc12 | -32.4% |
| Cc1cc(C(=O)CSc2cccc[n+]2[O-])c(C)n1-c1ccccc1 | 19.1% |
| Cc1ccc(-c2cc(C(=O)N3CCCC3)no2)cc1 | -58.2% |
| C=CCn1c(C)cc(C(=O)CSc2nc3ccccc3[nH]2)c1C | -60% |
| CCN(CC)CCn1c2ccccc2c2nc3ccc([N+](=O)[O-])cc3cc21 | 93.8% |
| Cc1ccc2c(c1)sc(=NC(=O)c1cccs1)n2C | -80.1% |
| COc1cccc(C(=O)Cn2c(=N)n(C)c3ccccc32)c1 | -71.8% |
| Oc1c(C(Nc2nccs2)c2ccc(C(F)(F)F)cc2)ccc2cccnc12 (centres undefined) | -82.5% |
| COc1ccc(/C=C2\SC(=S)N(CCC(=O)NC3C=CS(=O)(=O)C3)C2=O)cc1 (centres undefined) | -55.7% |
| Cc1cccc(NC(=O)c2onc3c2CCCC3)n1 | -66.5% |
| Cc1ccccc1NC(=O)c1cnc2ccccn2c1=O | -36.1% |
| Cc1ccc(-c2[nH]ncc2/C=C(\C#N)C(=O)NC2CCCCC2)cc1 | -47.7% |
| COc1ccc(C(=O)Nc2ccc3[nH]ccc3c2)cc1 | -70.4% |
| Oc1c(N=Nc2ccccn2)ccc2ccccc12 | 8.4% |

2 records drawn at random from the list so far:

| Structure (SMILES) | activity change, negative = inhibition |
| --- | --- |
| Cc1ccc(Nc2nc(N)c3ccccc3n2)cc1C | -56% |
| Cc1csc(NC(=O)C2COc3ccccc3O2)n1 (centres undefined) | -9.8% |

(more compounds)

| Structure (SMILES) | activity change, negative = inhibition |
| --- | --- |
| CCOc1ccc(Nc2cc(C)nc(-n3nc(C)cc3C)n2)cc1 | -61.8% |
| COc1ccc(-c2cc3nc(CCl)[nH]c(=O)c3s2)cc1 | 97.8% [at 6 µM] |
| CCNC(=S)NNC(=O)c1cc(-c2ccc(OCC)cc2)nc2ccccc12 | -47.2% |
| CC#CC(=O)N1CCC(CCc2ccccc2)(C(=O)OCC)CC1 | -47.4% |
| CNC1=C(N(C(C)=O)c2ccc(Br)cc2)C(=O)c2ccccc2C1=O | -95.5% |
| Cc1ccc(CSc2nc3ccncc3[nH]2)cc1 | -66.7% |
| Cc1c(C(=O)N/N=C/c2c(O)ccc3ccccc23)nnn1-c1nonc1N | -47.2% |
| CCCCc1ccc(-c2ccc(C)cc2O)nc1 | -60.2% |
| CCc1n[nH]c(=S)n1/N=C/c1c(C)nn(-c2ccccc2)c1Cl | -71.3% |
| CCN1CCN(/C=N/c2nc3c(s2)CCCC3)CC1 | -52.1% |
| Cn1ccnc1SCc1cn2cc(Br)ccc2n1 | -47.6% |
| CCOc1ccc(/C=C2\SC(=S)N(CCCC(=O)NCCCN3CCOCC3)C2=O)cc1 | -90.8% |
| O=C(O)c1ccccc1N/N=C\c1ccnc2ccccc12 | -65.4% |
| O=C(CCc1nnc(-c2ccc(-c3ccccc3)cc2)o1)NCCc1ccccn1 | -73% |
| Cc1ccc(C(=O)CN2C(=O)c3ccccc3S2(=O)=O)cc1 | -96.2% |
| N#CC(c1ccc(Cl)cc1)c1ccc2c(C(F)(F)F)cc(C(F)(F)F)nc2n1 (centres undefined) | -82.9% |
| CC1(C)CC(N=c2cc(-c3ccccc3)oc3ccc(Cl)cc23)CC(C)(C)N1 | -90.5% |
| O=C(Nc1ccccn1)c1onc2c1CCCC2 | -70.9% |
| Cc1ccccc1OCC(=O)Nc1cccc(C(=O)O)c1 | -26.3% [at 6 µM] |
| CCCCCOC(=O)c1[nH]c2c(c1C)C(=O)CC(c1ccco1)C2 (centres undefined) | -55.7% |
| O=C(Nc1nc2c(s1)CCCC2)C1COc2ccccc2O1 (centres undefined) | -47.9% |
| CCC(=O)Nc1ccc(NC(=O)c2oc3ccccc3c2C)cc1 | -77.1% |
| Cc1cc(NCCCn2ccnc2)n2ncc(-c3ccc(Cl)cc3)c2n1 | -51.3% |
| CN(C)c1ccc2nc3ccc(=[N+](C)C)cc-3sc2c1 | -22.6% |

| Structure (SMILES) | activity change, negative = inhibition |
| --- | --- |
| COc1ccc(-n2ncc3c(N(C)C4CCCCC4)ncnc32)cc1 | -86.9% |
| c1ccc(-c2cn3c4c(sc3n2)CCCC4)cc1 | -76% |
| O=C(CCCOc1ccccc1)N1CCCCC1 | -53.7% |
| Cc1ccc(-c2nc(-c3ccccc3)no2)c(Cl)c1 | -84.6% |
| O=C(Nc1cccc(O)c1)c1cc(-c2ccc3c(c2)OCO3)on1 | -73.5% |
| O=C(NCCc1ccccc1)c1ccc2nccnc2c1 | -63.6% |
| C=CCSc1nc2c(cnn2-c2ccccc2)c(=O)n1N | 109% |
| Nc1ncnc(N)c1N=Nc1ccccc1 | -15.4% |
| CC(C)Oc1ccccc1C1Nc2ccccc2C(=O)N1c1ccc2c(c1)OCCO2 (centres undefined) | -65.4% |
| O=C(COc1ccc(/C=N/NC(=O)c2cc3ccccc3o2)cc1Br)Nc1ccccc1 | -102% |
| CC(NC(=O)CCc1nnc(-c2ccc(-c3ccccc3)cc2)o1)c1nccs1 (centres undefined) | -71.3% |
| O=C(O)c1cccc(N/N=C/c2cccc3ccccc23)c1 | -65.9% |
| Cc1ccc(N/C=C/C(=O)c2cccs2)cc1 | -43.4% |
| CCN(C(=O)COC(=O)c1cc(-c2ccc3cc(OC)ccc3c2)nc2ccccc12)C1CCS(=O)(=O)C1 (centres undefined) | -49.2% |
| Cc1cccc2cc(C#N)c(SCC(=O)N3CC(=O)Nc4ccccc43)nc12 | -71.5% |
| CN(C)CCCNC(=O)c1ccc(-c2nc(-c3ccc(Cl)cc3)cs2)cc1 | -100% |
| N#CCCCC#Cc1ccc2c(c1)COc1c3ccccc3nn1-2 | -60.5% |
| CCn1nnc2cc(C(=O)NCCc3ccccc3F)ccc21 | -59.4% |
| COc1cc2c(c(OC)c1OC)-c1ccc(N(C)CC(OC)OC)c(=O)cc1[C@@H](NC(C)=O)CC2 | -71.8% |
| CC1CN/C(=C\C(=O)c2ccc(Br)cc2)C(=O)N1 (centres undefined) | -37% |
| O=C(/C=C/Nc1ccc(Br)cc1F)c1ccco1 | -48.8% |
| OCCN1CCN(C(=S)c2ccc(-c3ccccc3)cc2)CC1 | -34.3% [at 6 µM] |
| CC1(C)Cc2nc3sc4c(SCC(=O)NCc5ccccc5)ncnc4c3cc2CO1 | -25.6% |
| COc1ccc(N/N=C/c2c(C(=O)O)ccc3ccccc23)cc1 | -74.4% |

| Structure (SMILES) | activity change, negative = inhibition |
| --- | --- |
| CCCNC(=O)c1ccc(-c2nc3ccccc3s2)s1 | -72.7% |
| Cc1ccc(/C=C/c2nc3ccccc3s2)s1 | -83.5% |
| CCn1nc(C)c(NC(=O)/C=C/c2ccc(OC)c(COc3ccc(Br)cc3)c2)c1C | -45.5% |
| Cc1ccc(/C=C/c2nc3ccccc3c(=O)[nH]2)cc1 | -61.6% |
| O=c1c2sc(-c3ccccc3)cc2nc2n1CCC2 | -48% |
| COc1ccc(-c2ccc(NC(=O)c3ccco3)cc2)nn1 | -68.4% |
| Cc1c(/N=C(\[O-])Nc2ccc(Br)cc2)sn[n+]1C | -42.5% |
| CCOc1ccccc1C(=O)Nc1c[nH]c(=O)[nH]c1=O | -53.2% |
| COc1ccc(Br)cc1/C=C/c1ccc2cccc(O)c2n1 | -10.1% |
| Cc1ccc(-c2nc3n(n2)Cc2ccccc2-3)cc1 | -77.1% |
| Cc1cc(C)c(S(=O)(=O)Nc2ccc3c4c(cccc24)CC3)c(C)c1 | -65% |
| Cc1cc(/C=c2/sc3nc4ccccc4n3c2=O)c(C)n1-c1ccccn1 | -86.8% |
| CC(C)COc1ccc2[nH]c3c(c2c1)CCCC3=O | -53.8% |
| C/C(=N\NC(=O)c1c(C)nc2ccccn12)c1ccc(O)cc1O | -64.3% |
| O=C(CSC(=S)N1CCCCC1)c1ccccc1 | -56% |
| c1ccc(-c2cn3c(n2)-c2ccccc2C3)cc1 | -47.5% |
| c1ccc(-c2cn3nc(-c4ccccc4)sc3n2)cc1 | -71.1% |
| O=C1C=C(Nc2ccc(O)cc2)C(=O)c2ccccc21 | -32% |
| Cc1csc(NC(=O)c2cc3c(s2)CCCCC3)n1 | -77.7% |
| Cc1cccc(-c2nc3cc(NC(=O)C4CCCO4)ccc3o2)c1 (centres undefined) | -50.7% |
| COc1ccc(C(=O)O/N=C(\N)c2ccccc2)c(OC)c1 | -74.5% |
| COC(=O)c1ccc(C)c(NS(=O)(=O)c2ccc(OC)cc2)c1 | -72.7% |
| Cn1c(=N)n(CC(=O)c2ccccc2)c2ccccc21 | -77.1% |
| O=C(Nc1cccc(O)c1)c1noc2c1CCCCC2 | -59.1% |

Some of the entries above, reformatted.
Structure (SMILES)	activity change, negative = inhibition
Cc1cc(/C=c2/sc3nc4ccccc4n3c2=O)c(C)n1-c1ccccn1	-86.8%
CC(C)COc1ccc2[nH]c3c(c2c1)CCCC3=O	-53.8%
C/C(=N\NC(=O)c1c(C)nc2ccccn12)c1ccc(O)cc1O	-64.3%
O=C(CSC(=S)N1CCCCC1)c1ccccc1	-56%
c1ccc(-c2cn3c(n2)-c2ccccc2C3)cc1	-47.5%

(listing goes on)

| Structure (SMILES) | activity change, negative = inhibition |
| --- | --- |
| C(=C\c1nnc2c3ccccc3ncn12)/c1ccccc1 | 34.8% |
| Cc1ccc2nc(CSc3nc(C)ccc3C#N)[nH]c2c1 | 57.2% |
| Cc1ccc(-n2[nH]c(=O)c(-c3ccccn3)c2C)cc1 | -78.9% |
| O=C(c1cc(-c2ccc(Cl)cc2Cl)on1)N1CCOCC1 | -53.5% |
| CN(C)c1ccc(-c2nc3ccccc3n2C)cc1 | -59.5% |
| O=C1CCCc2c1[nH]c1ccc(Cl)cc21 | -73.9% |
| Cc1cc(N2CCCCC2)n2ncc(-c3ccccc3)c2n1 | -20.5% |
| OCCCNc1cc(-c2ccnc(Nc3cccc(Cl)c3)n2)ccn1 | -52.2% |
| Cc1ccc(NC2=C/C(=N\S(=O)(=O)c3cccs3)c3ccccc3C2=O)c(C)c1 | -101% |
| O=C1CN2Cc3c(ccc(Cl)c3Cl)N=C2N1 | -62% |
| Cc1c(OCC(=O)Nc2cccnc2)ccc2c3c(c(=O)oc12)CCC3 | 105% |
| Oc1c(Br)cc(Br)cc1/C=N/Nc1ccc(Cl)nn1 | -84.6% |
| O=C(Nc1ccc(Br)cc1F)c1ccc2c(c1)OCCO2 | -59.9% |
| O=Nc1c(-c2c(O)[nH]c3cc(Br)ccc23)[nH]c2ccccc12 | -56% |
| O=C(/C=C\Nc1ccccn1)c1ccccc1 | -31.2% |
| O=C1/C(=C/Nc2ccc3c(c2)OCO3)CCc2ccccc21 | -59.5% |
| Cc1nn(C)c(C)c1/C=C(/C(=O)C(C)(C)C)n1cncn1 | 64% |
| Cc1ccc2nc(-c3ccc(NC(=O)CCS(=O)(=O)c4ccccc4)cc3)sc2c1 | -64.6% |
| Cc1nc(SCc2cccc(C(=O)O)c2)nc2c1CCCC2 | -48.8% |
| O=C(c1cc(-c2ccc3c(c2)OCO3)on1)N1CCCCC1 | -66% |
| CCOc1ccc(S(=O)(=O)Nc2cc(OC)ccc2OC)cc1 | -80.1% |
| CN(C)c1ccc(N=Nc2ccc(C(=O)O)cc2)cc1 | -1% |
| O=C(O)c1ccc2cc(-c3ccccc3)[nH]c2c1 | -11.3% |
